From article PMC11492231
These are yes or no findings as the source states them, for the method shown. In cells and extracts the contact can be indirect. Some results given as binding are weak or reduced against the parent protein; the word gives no strength.

Protein sequences, listed by entry. Tags and fused reporters are not part of them.
UniProt P52332: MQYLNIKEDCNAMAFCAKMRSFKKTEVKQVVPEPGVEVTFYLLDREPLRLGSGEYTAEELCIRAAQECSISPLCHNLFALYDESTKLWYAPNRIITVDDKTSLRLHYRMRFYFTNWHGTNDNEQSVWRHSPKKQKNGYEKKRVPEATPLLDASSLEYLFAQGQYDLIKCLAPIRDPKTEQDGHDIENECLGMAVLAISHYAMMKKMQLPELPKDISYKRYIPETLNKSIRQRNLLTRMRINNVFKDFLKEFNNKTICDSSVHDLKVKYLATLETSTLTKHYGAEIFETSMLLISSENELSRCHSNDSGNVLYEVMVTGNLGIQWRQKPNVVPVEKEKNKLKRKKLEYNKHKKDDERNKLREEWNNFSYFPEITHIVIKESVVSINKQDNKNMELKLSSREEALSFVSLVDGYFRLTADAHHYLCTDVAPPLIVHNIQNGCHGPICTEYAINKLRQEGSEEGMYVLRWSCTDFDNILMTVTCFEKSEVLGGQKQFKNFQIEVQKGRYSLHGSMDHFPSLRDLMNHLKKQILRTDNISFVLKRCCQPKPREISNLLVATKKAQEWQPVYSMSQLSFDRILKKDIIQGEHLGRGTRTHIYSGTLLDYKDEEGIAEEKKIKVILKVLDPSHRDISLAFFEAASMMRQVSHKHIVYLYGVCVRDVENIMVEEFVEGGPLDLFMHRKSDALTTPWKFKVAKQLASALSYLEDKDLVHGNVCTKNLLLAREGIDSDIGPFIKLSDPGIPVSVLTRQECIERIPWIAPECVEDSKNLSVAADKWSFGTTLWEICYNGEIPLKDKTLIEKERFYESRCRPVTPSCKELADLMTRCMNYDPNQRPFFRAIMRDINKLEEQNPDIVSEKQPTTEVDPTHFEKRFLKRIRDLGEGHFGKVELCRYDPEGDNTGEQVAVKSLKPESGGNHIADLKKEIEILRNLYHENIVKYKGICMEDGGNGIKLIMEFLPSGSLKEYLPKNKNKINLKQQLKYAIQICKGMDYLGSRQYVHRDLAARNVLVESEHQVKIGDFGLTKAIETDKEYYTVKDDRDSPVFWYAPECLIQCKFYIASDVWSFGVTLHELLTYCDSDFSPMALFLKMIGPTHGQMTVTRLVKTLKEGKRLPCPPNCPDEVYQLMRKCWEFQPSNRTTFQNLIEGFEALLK

Target: T1, Latexin (LXN), endogenous in murine BMDMs (mouse (endogenous in BMDMs)) (UniProt P70202)
T1 sequence: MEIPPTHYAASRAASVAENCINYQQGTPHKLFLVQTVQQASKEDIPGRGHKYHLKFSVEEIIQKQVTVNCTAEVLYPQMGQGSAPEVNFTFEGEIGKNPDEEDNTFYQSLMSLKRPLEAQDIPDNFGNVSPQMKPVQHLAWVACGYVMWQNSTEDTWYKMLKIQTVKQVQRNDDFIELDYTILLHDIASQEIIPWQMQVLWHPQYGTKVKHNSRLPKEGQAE
Assay: co-IP; immunoprecipitation of endogenous LXN and JAK1 in murine BMDMs

## JAK1, endogenous in murine BMDMs (from UniProt P52332 1-1153)
  binding: binds
